At least one structure is not confirmed: it was looked up by name or label, or the drawing left a doubt.
Target: T1, FimH (Escherichia coli, UniProt Q1R2J4)
T1 construct: endogenous in cells; host or cells: type 1 piliated UPEC bacteria
Type: cell-based, UPEC
Settings: Table 1

By UniProt entry, the sequences of proteins in these tests, tags left out.
UniProt Q1R2J4, entry or part of it: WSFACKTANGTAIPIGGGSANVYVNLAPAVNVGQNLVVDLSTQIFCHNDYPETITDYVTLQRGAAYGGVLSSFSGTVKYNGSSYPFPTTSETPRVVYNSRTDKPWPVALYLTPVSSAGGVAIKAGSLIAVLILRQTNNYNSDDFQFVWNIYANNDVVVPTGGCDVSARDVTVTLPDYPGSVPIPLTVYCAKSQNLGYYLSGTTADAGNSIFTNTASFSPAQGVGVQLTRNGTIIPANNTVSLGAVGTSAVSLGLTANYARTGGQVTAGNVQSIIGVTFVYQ

## NC(=O)c1ccc(O[C@H]2O[C@H](CO)[C@@H](O)[C@H](O)[C@@H]2O)cc1 [Compound 14, 4-[3,4,5-trihydroxy-6-(hydroxymethyl)tetrahydropyran-2-yl]oxybenzamide]
  HAI Titer EC>90: 15.000 µM
